Data taken from publication PMC11959706, “Allatostatin-C signaling in the crab Carcinus maenas is implicated in the ecdysis program” (The Journal of Experimental Biology, 2025).

Assay: Circulating hormone levels in hemolymph over ecdysis and post-molt
Assay type: in vivo, Carcinus maenas
Conditions: endogenous peptide

Substance: pQIRYHQCYFNPISCF (disulfide) [AST-C, allatostatin-C, C. maenas AST-C family neuropeptide with C-terminal PISCF motif; synthetic (GenScript)]
- Time after ecdysis at which hemolymph levels became almost undetectable (RIA): ≤ 24 h
- Time after ecdysis at which hemolymph levels diminished to basal values (RIA): ≤ 2 h
- Hemolymph level as % of the peak value at E100 (within 1 h of completion of ecdysis): around 20%
